# Test results as given in PubChem BioAssay AID1508600 (Functional Genomics Laboratory (NCATS/FGL), 2020).
# About 3,700 (7%) of roughly 53,000 sequences were called active.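 Rule for the calls: active = gene knockdowns whose robust z-score for IL-1 alpha signal is at least 2 or at most -2, so actives lie on both sides; inactive = the rest.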 The list shows a part of the results.
# Assay: Components of the Cytosolic LPS Sensing Pathway: Gene Identification via Genome-wide siRNA Screen;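 note: robust z of the log signal after scaling to non-targeting control siRNA wells of the plate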
# Details: RAW264.7 macrophages, IL-1a HTRF, actives lie on both sides, screened at 100 nM (by protocol), cells primed 5 h with Pam3CSK4 first
# Method in brief: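 RAW264.7 mouse macrophages reverse-transfected with single siRNAs (100 nM final) for 48h, primed with Pam3CSK4 for 5 hours, then transfected with LipidA for 24 hour. Supernatant IL-1a read by HTRF; values normalized to negative-control median, log-transformed robust z-scores.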
row,Sequence,z-score
1,CGCAAGGACCGAUCUGAUGTT against Rnps1,active: -2.41
2,GGAAGGUGACAAGCACACCTT against S100a6,inactive: -1.08
3,GGCAGCCAAAUAUGGUGCUTT against Eln,inactive: 1.02
4,GGAUUGCAUCUUCCUCGAATT against Olfr816,active: -2.27
5,GGUUGAAACUGCUCUCAAGTT against Prl2a1,inactive: 1.77
6,GGGUGCAUUUUAAAUACUATT against Spred2,inactive: 0.73
7,GGCCUUAUAACUCAUAUAUTT against Zfp846,inactive: -1.86
8,GGGUGGUUGUAAAAAUUCUTT against Csnk2a2,inactive: 0.47
9,GCACUAUGGUCCAUAUUAUTT against Olfr154,inactive: -1.19
10,GCUUCUAAAUUUGGUUCUGTT against 9830163H01Rik,inactive: -0.389
11,GGGUUGGAAAGGUAUCUUATT against Timp4,inactive: -0.162
12,GCGCAAGCCGUAUUCGAAGTT against Hoxc12,active: 2.95
13,GGAACAGGACAAUGACAGUTT against Gzme,inactive: 1.43
14,GGAAGAAAAGAAUUCUAUGTT against Cep68,inactive: 0.493
15,GCUCUCCUGAAAUUAUGUATT against Get1,inactive: -0.126
16,CCUUAUCUGGAGUGCGAGATT against Gpr158,inactive: 0.452
17,CCUCUGUGAUUUCAUUCUUTT against Hhip,inactive: -0.991
18,GGUCUGCAUUUGCUUUCCUTT against Olr1,inactive: -1.4
19,GGACAAUGGGCAAGUCACCTT against Rnase1,inactive: -1.83
20,GGUGAUGUGGGUCUUGUGATT against Zdhhc24,inactive: -0.107
21,GCGUGCAGGGUUUUAGCUATT against Chmp2b,inactive: -1.58
22,GGAGUUUGAGAUCAUCUUCTT against Nxn,inactive: 0.785

row,Sequence,z-score
1,GGGUUUCUGUAAUGACUAUTT against Zfp113,inactive: -0.0803
2,CCGACCAAUGCAUUGACAATT against Lcn2,inactive: -1.22
3,GGAAAUUCAAGUCAGUGUUTT against Pcyox1l,inactive: -0.244
4,GGAAAAAUGCGAACUUACUTT against Npr2,inactive: 0.0359
5,GGGUGUGCCUGAAUUACACTT against Ubn1,inactive: -0.06
6,GGGAAAUCAGAUAAAGCCCTT against Myl12a,inactive: 0.874
7,CCCUCAUGUUUAGCGAGCATT against Kcnj3,inactive: 0.644
8,GGUACAAGCACUCCUGGAATT against Ccs,inactive: 1.42
9,GGAAAAGUGCAUUUUGCUGTT against Tex261,inactive: -0.921
10,GCCACAACUCCAGAUGCCUTT against Olfr937,active: -2.64
11,GCAAAGAGAGUUCGAAUAATT against Klhl2,inactive: 0.912
12,CCUUAAAAACUCGAGUAAATT against Gla,inactive: 0.384
13,GGUGAUGUAUAUUGAGUCUTT against Sdcbp2,inactive: 0.149
14,GGCCUACAGCUGGAAAGAATT against Chrm1,inactive: 0.418
15,GCAGAUCGAAUAAUAAGAGTT against Rbbp5,inactive: -0.297
16,GCUUCUAACUCUGUGAGGGTT against Defb29,active: -2.8
17,GGAUUUCCCAAGCCUUAUUTT against Sncaip,inactive: -0.617
18,GGACAUAAAAGACUUAAAGTT against Actr8,inactive: -1.78
19,GGGCAUUAGGAAUUAGGGCTT against Hoga1,inactive: -0.336
20,GGGUACAUUACACUCAGGATT against Atad3aos,inactive: 0.0727
21,GCUCUGUGGACUUCUUGGATT against Znrf4,inactive: -0.687
22,GGUUUUGCAUCAACAGUGUTT against Msrb2,inactive: 1.07

row,Sequence,z-score
1,CCAUUGCCUCACACGAGGATT against Lgals3bp,inactive: -0.573
2,GCCACUUGUUAAUAAAGUGTT against Smim7,inactive: -0.515
3,GGUAUACUAGUUUGAAGAGTT against Rpl21,inactive: 1.83
4,GGUUCUGGAUUUCUGUUUUTT against Phf24,inactive: -1.38
5,GGAAAGAGAUUCUCUUCUATT against Nsun2,inactive: -1.2
6,GCACCAAGGAGUUUCAUUUTT against Acadm,inactive: -0.339
7,CCCUCAAUGGCCUCAAACUTT against Elavl3,inactive: -1.29
8,GGGUUUUGAACACUACAUCTT against Tsen34,inactive: 1.28
9,GGCAAAAAGGAAUUUCGGCTT against Padi2,inactive: -0.288
10,GCCUUGACUGACAGACCCATT against Zfp114,inactive: -1.88
11,GGACUAGUCCUAAGAAGAGTT against Rbmxl2,inactive: -1.27
12,GCUAGGAGAACCUACAUACTT against Adcy4,inactive: -0.368
13,GGUGCAGUUUAAGAGAGAATT against Tmcc3,inactive: -0.224
14,GGUACAAGACUGUCAUGUGTT against Mrpl3,inactive: 0.356
15,GGAGUGAUGAUCAAAAUCCTT against Duxbl1,inactive: -0.381
16,GGACCAUACAAUGAUUCUATT against Zmat1,inactive: -0.648
17,GGAUUAUUUUAAGUGGAGATT against Dna2,inactive: -0.103
18,GGACCUGUUUGAAGAAAAGTT against Gnai2,inactive: -0.985
19,GGGUAUAUUUCCUUCCAGCTT against Dock4,inactive: -0.105
20,GGUACUCACAUCUCCAAAGTT against Zfp948,inactive: -0.881
21,GGGAACUGUACUGUAAUUUTT against Olfr615,inactive: 0.0311
22,GGGCAACUAUCCCGUUACUTT against Vps11,inactive: -0.211

row,Sequence,z-score
1,CCAGUAUGGAAGGUACUCATT against Scfd1,inactive: -0.875
2,GGGAUAGCACAAGUGAGUCTT against Slc13a3,inactive: -0.901
3,GGAAGAUCCCAACAGUUUGTT against Htra1,inactive: 1.1
4,GGGAGUAUAAGAGAAACCATT against Chgb,inactive: -0.357
5,CGAGGUUCGGACCUGUAAATT against Nabp2,inactive: -0.958
6,CGGCAGCAGAAUAAAUAUGTT against Il12b,inactive: 0.407
7,GGAGAGCUGAAAGAUUUAATT against Dlec1,inactive: 0.462
8,GGUUGUUCAGAUCUUCUGATT against Nlrp3,inactive: -0.103
9,GGAAGAAAGGUCUAGAAGCTT against Tor2a,inactive: 0.33
10,GGUCUUCUACUCCUUCUCATT against Slc6a19,active: -2.09
11,CCAUUUACCUCACUUGUUUTT against Asb8,inactive: -0.511
12,GGUUAAAACCUCUUUCUGATT against Adpgk,inactive: -1.33
13,GGUCAAUGUUCACCAGCCATT against Megf11,inactive: 0.627
14,GGAUGGUACAGGUCUGGUGTT against Fgfr3,active: 4.82
15,GGCCACAGAUCUUCUGGUGTT against Calml4,inactive: 1.08
16,GGUGAAUUAUUGCUUUGAGTT against Adprm,inactive: -0.376
17,GGGUUACCCAGCAUUCUUUTT against Pex26,inactive: -0.811
18,GGAUGAAGGCUUCUCUGCUTT against Psenen,inactive: -0.353
19,GGAUAUUACUCUGUUGAAATT against Ppp2ca,inactive: 0.193
20,GGUGAGAUGGUUCAACAUGTT against Olfr77,inactive: 1.7
21,CCUAAUACCUUCAGUGUUCTT against Ptcd3,inactive: 0.865
22,GGAAAUGAACAGAAAUCACTT against Wdr4,inactive: -0.926

# Reformatted tab-delimited: entries from further up.
row	Sequence	z-score
2	GGGAUAGCACAAGUGAGUCTT against Slc13a3	inactive: -0.901
6	CGGCAGCAGAAUAAAUAUGTT against Il12b	inactive: 0.407
7	GGAGAGCUGAAAGAUUUAATT against Dlec1	inactive: 0.462
8	GGUUGUUCAGAUCUUCUGATT against Nlrp3	inactive: -0.103
19	GGAUAUUACUCUGUUGAAATT against Ppp2ca	inactive: 0.193
21	CCUAAUACCUUCAGUGUUCTT against Ptcd3	inactive: 0.865

# As entered above.
# Under z-score, GGAUGAAGGCUUCUCUGCUTT against Psenen has inactive: -0.353
# Under z-score, GGAAGAAAGGUCUAGAAGCTT against Tor2a has inactive: 0.33

# More records

row,Sequence,z-score
1,GGAGCUUUAUUUUAUACCUTT against Ppil2,inactive: 0.898
2,GCAUGAGUUAUCAUAAUCATT against Itgb2,inactive: 1.04
3,CGGUCUAAAUUUCCGGUCATT against Elane,inactive: -0.205
4,GGAUGACGAUUAUAGAGAATT against Cap2,inactive: -0.606
5,GGGAAAAAUAAACUAAGUGTT against Rwdd1,inactive: -1.43
6,CGUGAUUGAAUCUCAGGAGTT against Spata24,active: -2.14
7,GGUGAGCGAGAUAAGAAGCTT against Ube2s,inactive: 0.852
8,GGAUAAACUGUAUGGCUUCTT against Mmp9,inactive: 1.24
9,CGUACGCAGAAAUGCCUAGTT against Ssu72,inactive: 0.865
10,GGACGUAGCUUGGAAAGAUTT against Flcn,inactive: -0.813
11,GGCUAUGAAAAGAAGCCCUTT against Nebl,inactive: 0.634
12,CGGAGCCUAUAACAUAUUUTT against Nid1,inactive: 0.0328
13,GGCUGAUUCUCCUUCUACCTT against Capn15,inactive: -1.02
14,GGUCAGCAUCACCUACGAUTT against Prss8,inactive: -0.688
15,GGUAGUGGAGCUGAAUGUUTT against Kctd8,inactive: 0.113
16,GGAUUUCUGUGUGUCCACUTT against Nav3,inactive: -0.131
17,CCAACACGACGCAGGAAAUTT against Nr0b1,inactive: 1.33
18,GGAUGAUCGCUUUUGCUAUTT against Caly,active: 2.02
19,GGUUGAGAACGAAAACCACTT against Septin11,inactive: -0.0425
20,GCUUGUUGAUCAAUAACCCTT against Cntn4,inactive: -0.356
